According to publication PMC12040169 (PLOS Biology, 2025):
Some of the results follow.

Test system: T1, CTL2-GFP (C. trachomatis L2/434/Bu, GFP-expressing)
T1 construct: L2/434/Bu, GFP-expressing
Parameters: species or system HeLa; Intracellular C. trachomatis growth in HeLa cells, bulk GFP fluorescence relative to DMSO
Conditions: bulk GFP, single well; 28.5 h, 10 µM; inhibitor

| Structure (SMILES) | % of control remaining [%] |
| --- | --- |
| Cc1cccc(-c2ccc(CC3(C(=O)NC(C)C)CCN(C(=O)C(C)(C)C)CC3)cc2)c1 [CBK285758] | 137.172 |
| CN(CC(=O)NC1CCCCC1)S(=O)(=O)c1ccc(F)cc1 [CBK091832] | 108.326 |
| CC(C)Cc1csc(C2CN3CCCC3CO2)n1 (stereo not shown) [CBK304807] | 102.686 |
| O=C(OCn1nnc2ccccc2c1=O)c1cccc([N+](=O)[O-])c1 [CBK264887] | 91.9315 |
| O=C(Nc1cccc2cc[nH]c12)c1cc(F)c(Cl)cc1F [CBK160080] | 123.001 |
| CC(=O)c1ccc(NC(=O)c2cccc(Cl)c2)cc1 [CBK033939] | 130.094 |
| O=C(Nn1cnnc1)c1ccc(C(=O)Nn2cnnc2)cc1 [CBK261111] | 108.102 |
| O=C(Cn1c(C2CCCNC2)cc2cccnc21)NC1CCCC1 (stereo not shown) [CBK285059] | 101.291 |
| CC(=O)Nc1cccc(-n2cnnc2SCC2CCCCC2)c1 [CBK305054] | 85.9325 |
| COc1ccccc1N1C(=O)[C@H]2N=C(C(=O)c3cnccn3)N[C@H]2C1=O [CBK021406] | 118.443 |
| CC1=C(C(=O)Nc2ccccc2)C(c2cccs2)C(C#N)=C(SCC(=O)c2ccc(Br)cc2)N1 (stereo not shown) [CBK261384] | 96.5691 |
| C1=C(CNC(Cc2cccs2)c2nccs2)COCC1 (stereo not shown) [CBK284682] | 72.0243 |
| CCOc1cccc(-c2cncc(NC(C)CCCC(C)(C)O)n2)c1 (stereo not shown) [CBK066020] | 187.219 |
| Cc1cccc(=O)n1CCCNc1cc(C2CCOC2)nc(N)n1 (stereo not shown) [CBK307030] | 150.026 |
| Cc1ccnc(NCC2CCN(CC(=O)NC3(C#N)CCCC3)C2)c1 (stereo not shown) [CBK306128] | 127.24 |
| Cn1nc(C2CCCC2)cc1[C@H]1CN2CC[C@H]1C[C@@H]2CNS(=O)(=O)c1ccccc1 [CBK288741] | 120.148 |
| Cc1nc(CCNC(=O)N2CCC(Oc3cccnc3)CC2)sc1Cl [CBK306636] | 130.756 |
| O=C(NCc1ccccc1)c1ccc(N2C(=O)CSC23C(=O)Nc2ccccc23)cc1 (stereo not shown) [CBK093476] | 95.9166 |
| O=C1CC2(CCN(Cc3ccc(C(F)(F)F)cc3)CC2)CN1 [CBK283359] | 121.762 |
| Cc1c(F)cccc1CN(CC(C)(C)CN)C(=O)Nc1ccc2c(c1)OCO2 [CBK002486C] | 124.91 |
| O=C(CC1CCN(Cc2ccccn2)CC1)Nc1ccc(OC2CCCC2)cc1 [CBK285960] | 71.6802 |
| CCn1c(=N)c(C(=O)NCCOC)cc2c(=O)n3ccccc3nc21 [CBK287605] | 116.494 |

Part of the list above, set out differently.
Structure (SMILES) | % of control remaining [%]
CC(=O)c1ccc(NC(=O)c2cccc(Cl)c2)cc1 [CBK033939] | 130.094
CCOc1cccc(-c2cncc(NC(C)CCCC(C)(C)O)n2)c1 (stereo not shown) [CBK066020] | 187.219
